# Experimental data taken from the supplement of paper PMC8728848.
# This is one part of the list.
# B1: PX9961W-pdi-543-27-543 (Parabacteroides distasonis) (protein)
# chain: EGNATTTSYFLNDQQAIDAIDGLYERFHQEGCYGRELFWEQGAACDIVWGRTRGYNSLATLAYTGDESPLRDVFSRMYSTMSRANWIIQELVKKEKGTTLTAVEKRSLGEAYFSRGWAHYLIAYRYGTDKQGVPFVRYEDFPDDYDNSIPPQQATVMDNYKLIIEDMDKAIAYLPIFESYDADNRGRAHQAAAVAFKAKTYAYWATWDATQWNNVIEMVNQLENNYNRDLAPTFAELFSSDLKDYWNAEYLWTIPSIGGALPGGTEFPGIILENKGWGKYNGWGQMKPSYDIYEEMAKDGKGNDRLVRSILEYNQEFPFFGETRKFWSTSDLEAGFMINKYMDAFKYSDPVGEGAVSANGDWPTVRVNFPIIRFAEMLLFRAEAYLMTGQADKATADINRIRLRSNLTPLTGTATMKDLYHERRCELAFEFTDHLFDLKRWNRSSNADIKTLADKELNAHPRIRRYEDRANPESAFTIIGYEDYTNKNAYQAHMMVFPYPSEEITKSNGQLKQNEGY
# What was measured:
# [1] = target: Neu5Gc(a2-8)Neu5Gc(a2-6)Gal(b1-4)GlcNAc; experiment: glycan array binding signal (z-score within array); higher = stronger binding; settings: glycan notation: IUPAC condensed, linker removed
# In short: (§1)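 From the Consortium for Functional Glycomics database, 3228 arrays were curated, keeping only those whose protein sequence was available. Binding is given as a within-array Z-score averaged across arrays sharing a protein sequence and across linkers. Negative Z-scores can be read as non-binding.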
# [2] = target: Neu5Gc(b2-6)Gal(b1-4)GlcNAc; experiment: as above; settings: glycan notation: IUPAC condensed, linker removed
# In short: as §1
binder,measurement,setting,value
B1,glycan array binding signal (z-score),[1],0.393
same,glycan array binding signal (z-score),[2],0.045
